No constants are given. Whether binding was seen depends on the method and setting. For some of these results: In cells and extracts the contact can be indirect. Some binding calls cover weakened binding; strength is not graded here. For some of these results: Sequences can lack the tags named with a protein.
T1: recombinant PXR protein (50 kDa) (UniProt O75469)
T1 sequence: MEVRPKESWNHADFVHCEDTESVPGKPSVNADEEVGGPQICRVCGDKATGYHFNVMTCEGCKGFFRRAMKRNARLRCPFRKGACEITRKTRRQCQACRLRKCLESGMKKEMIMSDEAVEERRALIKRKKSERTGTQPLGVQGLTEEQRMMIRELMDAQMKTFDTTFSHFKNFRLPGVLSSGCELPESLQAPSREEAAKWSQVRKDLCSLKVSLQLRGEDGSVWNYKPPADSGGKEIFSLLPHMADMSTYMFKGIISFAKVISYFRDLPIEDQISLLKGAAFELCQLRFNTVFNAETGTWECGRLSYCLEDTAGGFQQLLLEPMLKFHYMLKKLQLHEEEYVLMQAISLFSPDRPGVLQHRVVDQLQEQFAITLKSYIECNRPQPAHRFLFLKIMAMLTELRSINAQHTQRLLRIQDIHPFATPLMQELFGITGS

Amino acid sequences for entries named in this document (tags omitted).
UniProt P09874: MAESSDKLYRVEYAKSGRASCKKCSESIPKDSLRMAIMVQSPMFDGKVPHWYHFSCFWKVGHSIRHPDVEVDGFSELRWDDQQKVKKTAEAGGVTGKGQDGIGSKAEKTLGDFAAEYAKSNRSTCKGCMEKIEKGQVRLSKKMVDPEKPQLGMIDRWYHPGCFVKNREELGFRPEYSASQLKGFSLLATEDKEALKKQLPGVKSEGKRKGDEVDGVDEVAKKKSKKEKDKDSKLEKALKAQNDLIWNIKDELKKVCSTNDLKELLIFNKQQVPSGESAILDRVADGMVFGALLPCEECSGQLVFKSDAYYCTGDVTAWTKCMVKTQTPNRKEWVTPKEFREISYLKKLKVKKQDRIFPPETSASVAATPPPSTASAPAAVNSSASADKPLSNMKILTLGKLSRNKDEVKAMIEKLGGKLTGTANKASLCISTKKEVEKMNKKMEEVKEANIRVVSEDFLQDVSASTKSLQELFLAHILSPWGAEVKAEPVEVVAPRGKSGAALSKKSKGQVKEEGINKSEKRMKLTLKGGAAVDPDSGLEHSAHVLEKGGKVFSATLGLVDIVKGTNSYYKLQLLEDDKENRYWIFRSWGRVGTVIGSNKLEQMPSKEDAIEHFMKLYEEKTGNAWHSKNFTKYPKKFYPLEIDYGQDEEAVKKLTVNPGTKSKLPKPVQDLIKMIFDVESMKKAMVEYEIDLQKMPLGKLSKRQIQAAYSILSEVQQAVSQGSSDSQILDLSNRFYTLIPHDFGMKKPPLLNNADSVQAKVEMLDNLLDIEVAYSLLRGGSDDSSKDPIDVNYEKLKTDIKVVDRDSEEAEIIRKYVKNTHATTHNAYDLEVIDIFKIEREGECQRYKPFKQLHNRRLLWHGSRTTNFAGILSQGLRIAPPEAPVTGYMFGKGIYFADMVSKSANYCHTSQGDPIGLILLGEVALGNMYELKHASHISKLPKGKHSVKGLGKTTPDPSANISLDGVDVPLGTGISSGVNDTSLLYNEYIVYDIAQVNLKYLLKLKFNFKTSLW

T2: EGFP-tagged full-length PXR (human) (UniProt O75469)
T2 sequence: T1 sequence

B1: EGFP-tagged full-length PXR (receptor, UniProt O75469 1-434)
chain: T1 sequence

Columns and labels:
[1] = target: T1, recombinant PXR protein (50 kDa); assay: far-Western, overlay or dot blot; cell-free; recombinant PXR protein resolved by SDS-PAGE on PVDF membrane; UP-PARP1 or AP-PARP1 as probe, 37 °C for 1 h, Hyb-75 buffer; both purified
[2] = target: T2, EGFP-tagged full-length PXR (human); assay: co-IP; HepG2 cells co-transfected with Flag-PARP1 and EGFP-PXR (full length or deletion mutants); nuclear extracts; IP with anti-Flag or anti-EGFP at 4 °C overnight, protein-A/G agarose; washed with 50 mM Tris, 150 mM NaCl, 1% NP-40, 1% sodium deoxycholate; western blot; nonspecific IgG as control
[3] = target: Flag-tagged full-length PARP1 (human) (UniProt P09874); assay: as above

Row | Molecule | binding [1] | further results
1 | autopoly(ADP-ribosyl)ated PARP1 (from UniProt P09874 1-1014) (enzyme) | binds | 
2 | unpoly(ADP-ribosyl)ated PARP1 (recombinant PARP1 protein) (from UniProt P09874 1-1014) (enzyme) | binds | 
3 | Flag-tagged full-length PARP1 (from UniProt P09874 1-1014) (enzyme) |  | binding [2]: binds
4 | B1 |  | binding [3]: binds
